# Data published in PubChem BioAssay AID298 (DTP/NCI, 2004).
# The list does not hold the whole screen: it covers a few groups of compounds. Other doses and runs of a compound may be missing. T/C is the treated group as % of the vehicle group. Schedule codes are those of the source, read here as Q, the interval in days (D) or hours (H), X, the number of doses. Marks such as (2×) say how often a value occurs here. Some entries were tested several times; their values stand side by side, smallest first. Some values lie below zero, which means that the treated tumours became smaller. Some doses have a count of surviving animals in place of a T/C: the source holds a T/C of zero for them, seemingly a mark for toxic or unscored doses. Survivors were counted at the toxicity check; its day is shown where the source gives one, and later deaths do not show.
# Test system: MX-1 breast xenograft, intrarenal, nude mice, tumor weight
# Assay: NCI In Vivo Anticancer Drug Screen. Data for tumor model Human Mammary Carcinoma MX-1 Xenograft (intrarenal inoculation) in NU/NU BALB/C (nude) mice
# Conditions: T/C endpoint: mean tumor weight change, higher T/C = larger tumour; for T/C: evaluated on day 11
# Protocol: The antitumor activity of compounds was measured in mice bearing transplantable tumors. Survival or tumor size were measured and the results are expressed as the measurement made in the treated group (T) divided by the measurement made in the vehicle treated control group (C). The tumor model used in this assay is Human Mammary Carcinoma MX-1 Xenograft (intrarenal inoculation) in NU/NU BALB/C (nude) mice
# [1] = dose: 150.0 mg/kg/injection, schedule: Q04DX003 (sc), vehicle: water
compound,measurement,setting,value
Cc1ccc(N(CCBr)CCBr)cc1,T/C,"dose: 18.75 mg/kg/injection, schedule: Q04DX003 (sc), vehicle: Klucel (hydroxypropylcellulose) (HPC)",-6 % of control
same,T/C,"dose: 37.5 mg/kg/injection, schedule: Q04DX003 (sc), vehicle: Klucel (hydroxypropylcellulose) (HPC)",-100 % of control
same,survivor count,"dose: 75.0 mg/kg/injection, schedule: Q04DX003 (sc), vehicle: Klucel (hydroxypropylcellulose) (HPC)",3 of 6 on day 11
same,survivor count,"dose: 150.0 mg/kg/injection, schedule: Q04DX003 (sc), vehicle: Klucel (hydroxypropylcellulose) (HPC)",0 of 6 on day 11
NC1CCCCC1.NP(=O)(O)N(CCCl)CCCl,T/C,"dose: 75.0 mg/kg/injection, schedule: Q04DX003 (sc), vehicle: water",12 and 13 % of control
same,T/C,[1],2 % of control
same,survivor count,[1],1 of 3 on day 11
same,survivor count,"dose: 300.0 mg/kg/injection, schedule: Q04DX003 (sc), vehicle: water",0 of 3 on day 11 and 0 of 6 on day 11
same,survivor count,"dose: 600.0 mg/kg/injection, schedule: Q04DX003 (sc), vehicle: water",0 of 6 on day 11
NCCN(CCCl)CCCl,T/C,"dose: 0.58 mg/kg/injection, schedule: Q04DX003 (ip), vehicle: saline",1 % of control
same,T/C,"dose: 0.96 mg/kg/injection, schedule: Q04DX003 (ip), vehicle: saline",6 % of control
same,T/C,"dose: 1.6 mg/kg/injection, schedule: Q04DX003 (ip), vehicle: saline",4 % of control (2×)
CC1=CC(=O)C(N(CCCl)CCCl)=CC1=O,T/C,"dose: 0.75 mg/kg/injection, schedule: Q01DX010 (sc), vehicle: Klucel (hydroxypropylcellulose) (HPC)",-35 % of control
same,T/C,"dose: 1.5 mg/kg/injection, schedule: Q01DX010 (sc), vehicle: Klucel (hydroxypropylcellulose) (HPC)",-20 % of control
same,T/C,"dose: 3.0 mg/kg/injection, schedule: Q01DX010 (sc), vehicle: Klucel (hydroxypropylcellulose) (HPC)",-58 % of control
O=NN(CCSCCCl)C(=O)NC1CCCCC1,T/C,"dose: 300.0 mg/kg/injection, schedule: Q04DX003 (sc), vehicle: saline + Tween-80 + alcohol",12 % of control
same,T/C,"dose: 600.0 mg/kg/injection, schedule: Q04DX003 (sc), vehicle: saline + Tween-80 + alcohol",2 % of control
same,T/C,"dose: 900.0 mg/kg/injection, schedule: Q04DX003 (sc), vehicle: saline + Tween-80 + alcohol",-100 % of control
